Test results taken from PMC8263706.
No constants are given. Whether binding was seen depends on the method and setting. In cells and extracts the contact can be indirect. Tags and fused reporters may be left off the sequences shown.

Molecular target: T1, MAGNESIUM-PROTOPORPHYRIN IX METHYL … (MgPMT), BiFC fusion (UniProt Q9SW18)
T1 sequence: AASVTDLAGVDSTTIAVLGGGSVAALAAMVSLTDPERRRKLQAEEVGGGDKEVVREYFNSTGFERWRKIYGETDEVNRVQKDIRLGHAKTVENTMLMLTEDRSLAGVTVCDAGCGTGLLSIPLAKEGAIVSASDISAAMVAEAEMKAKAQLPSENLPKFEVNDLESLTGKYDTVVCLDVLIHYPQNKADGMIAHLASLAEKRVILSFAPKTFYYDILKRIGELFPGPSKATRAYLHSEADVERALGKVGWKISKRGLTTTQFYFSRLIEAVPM
Assay: split reporter; nYFP and cYFP fusions expressed in N. benthamiana leaves by agroinfiltration; YFP signals examined by CLSM in protoplasts

B1: CPP1, BiFC fusion (nYFP or cYFP) (protein, UniProt Q9FN50 49-258)
chain: TVDSSYGGNVPTFPRTRVWDPYKRLGVSPYASEEEIWASRNFLLQQYAGHERSEESIEGAFEKLLMSSFIRRKKTKINLKSKLKKKVEESPPWLKALLDFVEMPPMDTIFRRLFLFAFMGGWSIMNSAEGGPAFQVAVSLAACVYFLNEKTKSLGRACLIGIGALVAGWFCGSLIIPMIPTFLIQPTWTLELLTSLVAYVFLFLSCTFLK
- binding: no binding
